{
  "sequences": {"note": "Chains of the proteins cited; added tags and fusions are not shown. Residues count along the entry.", "UniProt Q69ZK9, residues 15-836": "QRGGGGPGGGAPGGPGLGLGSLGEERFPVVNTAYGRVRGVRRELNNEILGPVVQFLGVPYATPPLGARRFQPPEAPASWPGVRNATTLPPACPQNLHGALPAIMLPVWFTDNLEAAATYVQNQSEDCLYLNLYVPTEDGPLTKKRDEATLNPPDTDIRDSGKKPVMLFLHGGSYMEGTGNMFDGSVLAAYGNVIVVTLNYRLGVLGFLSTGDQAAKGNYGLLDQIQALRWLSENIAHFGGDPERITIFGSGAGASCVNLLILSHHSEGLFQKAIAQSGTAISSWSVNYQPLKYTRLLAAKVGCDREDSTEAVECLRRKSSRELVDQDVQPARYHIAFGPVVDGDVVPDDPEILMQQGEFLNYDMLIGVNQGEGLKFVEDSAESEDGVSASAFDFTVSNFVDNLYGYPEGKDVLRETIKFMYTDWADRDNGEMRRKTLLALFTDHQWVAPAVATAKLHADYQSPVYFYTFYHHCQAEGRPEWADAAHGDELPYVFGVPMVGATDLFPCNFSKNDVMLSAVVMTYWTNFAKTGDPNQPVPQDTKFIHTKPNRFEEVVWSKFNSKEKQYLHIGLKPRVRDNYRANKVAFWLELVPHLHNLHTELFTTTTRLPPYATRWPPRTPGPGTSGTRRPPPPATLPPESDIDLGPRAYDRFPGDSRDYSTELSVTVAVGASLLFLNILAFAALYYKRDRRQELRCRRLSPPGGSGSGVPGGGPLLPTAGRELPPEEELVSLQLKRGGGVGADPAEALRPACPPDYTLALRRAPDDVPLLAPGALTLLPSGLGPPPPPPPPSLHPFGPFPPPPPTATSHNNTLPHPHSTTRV", "UniProt Q8BYM5, residues 35-825": "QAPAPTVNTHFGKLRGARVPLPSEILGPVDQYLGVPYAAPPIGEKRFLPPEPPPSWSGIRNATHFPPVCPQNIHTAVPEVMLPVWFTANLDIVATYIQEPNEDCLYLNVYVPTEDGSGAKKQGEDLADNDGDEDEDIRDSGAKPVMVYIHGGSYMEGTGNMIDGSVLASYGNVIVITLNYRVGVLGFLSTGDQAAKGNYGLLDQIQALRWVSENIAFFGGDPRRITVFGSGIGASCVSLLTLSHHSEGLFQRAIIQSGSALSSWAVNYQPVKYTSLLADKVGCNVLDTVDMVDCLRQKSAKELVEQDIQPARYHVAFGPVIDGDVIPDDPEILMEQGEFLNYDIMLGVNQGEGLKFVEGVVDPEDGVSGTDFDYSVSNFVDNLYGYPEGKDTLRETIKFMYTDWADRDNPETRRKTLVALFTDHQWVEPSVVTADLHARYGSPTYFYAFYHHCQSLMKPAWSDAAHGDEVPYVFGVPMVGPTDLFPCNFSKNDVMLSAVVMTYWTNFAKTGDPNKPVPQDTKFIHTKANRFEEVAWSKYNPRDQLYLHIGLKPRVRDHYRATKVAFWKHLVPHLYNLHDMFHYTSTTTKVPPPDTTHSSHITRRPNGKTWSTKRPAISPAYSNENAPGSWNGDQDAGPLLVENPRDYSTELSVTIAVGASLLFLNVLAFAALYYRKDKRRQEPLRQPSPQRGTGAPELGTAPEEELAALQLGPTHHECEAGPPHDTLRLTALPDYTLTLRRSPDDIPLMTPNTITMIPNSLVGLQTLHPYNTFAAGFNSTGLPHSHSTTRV", "UniProt Q99K10, residues 46-843": "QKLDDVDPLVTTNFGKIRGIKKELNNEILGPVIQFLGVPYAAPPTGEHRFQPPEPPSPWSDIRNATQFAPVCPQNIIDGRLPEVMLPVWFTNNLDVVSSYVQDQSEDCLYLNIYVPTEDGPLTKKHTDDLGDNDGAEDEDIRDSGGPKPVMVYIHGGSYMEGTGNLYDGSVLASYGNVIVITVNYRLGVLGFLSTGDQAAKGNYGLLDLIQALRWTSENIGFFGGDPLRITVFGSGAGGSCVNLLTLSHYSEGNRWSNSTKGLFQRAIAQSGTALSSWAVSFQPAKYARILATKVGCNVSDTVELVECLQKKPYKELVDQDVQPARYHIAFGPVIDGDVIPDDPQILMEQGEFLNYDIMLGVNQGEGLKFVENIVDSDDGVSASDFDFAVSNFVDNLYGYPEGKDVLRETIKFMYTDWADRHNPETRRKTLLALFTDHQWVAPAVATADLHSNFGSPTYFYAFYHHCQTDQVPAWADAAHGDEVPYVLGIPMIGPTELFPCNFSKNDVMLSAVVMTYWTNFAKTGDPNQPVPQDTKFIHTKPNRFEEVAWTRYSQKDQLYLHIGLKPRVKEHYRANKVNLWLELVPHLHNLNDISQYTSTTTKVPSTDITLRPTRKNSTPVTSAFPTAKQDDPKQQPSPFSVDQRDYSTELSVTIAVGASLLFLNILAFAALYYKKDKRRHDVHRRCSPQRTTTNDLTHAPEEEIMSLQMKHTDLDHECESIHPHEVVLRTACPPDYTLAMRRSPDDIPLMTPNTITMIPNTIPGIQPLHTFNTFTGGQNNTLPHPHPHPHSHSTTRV", "UniProt Q8CFI0": "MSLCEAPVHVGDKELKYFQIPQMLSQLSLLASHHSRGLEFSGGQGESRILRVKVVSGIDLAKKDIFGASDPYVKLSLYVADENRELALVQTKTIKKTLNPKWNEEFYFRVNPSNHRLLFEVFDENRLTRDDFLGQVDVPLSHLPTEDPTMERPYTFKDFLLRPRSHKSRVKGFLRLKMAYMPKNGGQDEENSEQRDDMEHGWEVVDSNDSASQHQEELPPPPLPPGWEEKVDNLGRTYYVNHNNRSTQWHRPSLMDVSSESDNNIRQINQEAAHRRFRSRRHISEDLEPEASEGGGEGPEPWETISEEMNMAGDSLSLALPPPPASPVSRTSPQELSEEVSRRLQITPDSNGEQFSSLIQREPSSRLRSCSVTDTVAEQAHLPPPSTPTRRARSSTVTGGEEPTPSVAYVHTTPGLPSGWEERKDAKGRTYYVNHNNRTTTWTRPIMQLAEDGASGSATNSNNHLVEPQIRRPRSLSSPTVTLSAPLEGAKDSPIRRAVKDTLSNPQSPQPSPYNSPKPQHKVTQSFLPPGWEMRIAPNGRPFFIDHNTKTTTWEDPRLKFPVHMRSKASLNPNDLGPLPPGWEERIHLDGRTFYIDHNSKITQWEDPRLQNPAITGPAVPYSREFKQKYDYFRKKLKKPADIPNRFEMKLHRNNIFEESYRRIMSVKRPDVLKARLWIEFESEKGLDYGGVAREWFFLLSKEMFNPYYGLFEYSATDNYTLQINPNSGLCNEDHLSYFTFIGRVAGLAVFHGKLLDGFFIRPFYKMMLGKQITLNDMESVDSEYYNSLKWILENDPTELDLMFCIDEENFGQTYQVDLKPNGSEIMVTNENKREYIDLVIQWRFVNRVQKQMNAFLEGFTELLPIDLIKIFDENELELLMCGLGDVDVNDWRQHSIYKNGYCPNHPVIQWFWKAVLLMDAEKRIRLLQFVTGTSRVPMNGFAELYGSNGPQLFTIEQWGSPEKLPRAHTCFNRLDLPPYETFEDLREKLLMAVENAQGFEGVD"},
  "source": "paper doi:10.64898/2025.12.15.694023",
  "molecules": {"B1": {"name": "growth arrest-specific protein 7 (protein, UniProt Q60780 1-421)", "chain": "MATALQKPGMVPPPPGEESQTVILPPGWHSYLSPQGRRYYVNTTTNETTWERPSSSPGISASPAPHRSSLPTTVNGYHASGTPAHPPETAHMSLRKSTGDSQNLGSSSPGRKQSKENTITINCVTFPHPDTMPEQQLLKPTEWSYCDYFWADKKDPQGNGTVAGFELLLQKQLKGKQMQKEMSEFIRERIKIEEEYAKNLAKLSQNSLAAQEEGSLGEAWAQVKKSLADEAEVHLKFSAKLHSEVEKPLMNFRENFKKDMKKCDHHIADLRKQLASRYASVEKARKALTERQKDLEMKTQQLEIKLSNKTEEDIKKARRKSTQAGDDLMRCVDLYNQAQSKWFEEMVTTTLELERLEVERVEMIRQHLCQYTQLRHETDMFNQSTVEPVDQLLRKVDPAKDRELWVREHKTGNIRPVDMEI", "modifications": "biotin (proximity labelling)"}},
  "key": {"[1]": {"target": "gfaABC1D HA-NL2 Turbo (mouse) (UniProt Q69ZK9)", "assay": "proximity labelling; in vivo BioID (iBioID): NL-Turbo BirA fusions under the GfaABC1D promoter in astrocytes of mouse cortex (AAV at P0-P1), biotin P18-P20, cortices at P21, Neutravidin beads, LC-MS/MS; enrichment over soluble Turbo BirA in astrocytes"}, "[2]": {"target": "hSyn1 HA-NL2 Turbo (mouse) (UniProt Q69ZK9)", "assay": "proximity labelling; in vivo BioID (iBioID): NL2-Turbo BirA under the hSyn1 promoter in neurons of mouse cortex (AAV at P0-P1), biotin P18-P20, cortices at P21, Neutravidin beads, LC-MS/MS; enrichment over soluble Turbo BirA in neurons"}, "[3]": {"target": "gfaABC1D HA-NL3 Turbo (mouse) (UniProt Q8BYM5)", "assay": "proximity labelling; in vivo BioID (iBioID): NL-Turbo BirA fusions under the GfaABC1D promoter in astrocytes of mouse cortex (AAV at P0-P1), biotin P18-P20, cortices at P21, Neutravidin beads, LC-MS/MS; enrichment over soluble Turbo BirA in astrocytes"}, "[4]": {"target": "gfaABC1D HA-NL1 Turbo (mouse) (UniProt Q99K10)", "assay": "proximity labelling; in vivo BioID (iBioID): NL-Turbo BirA fusions under the GfaABC1D promoter in astrocytes of mouse cortex (AAV at P0-P1), biotin P18-P20, cortices at P21, Neutravidin beads, LC-MS/MS; enrichment over soluble Turbo BirA in astrocytes"}, "[5]": {"target": "gfaABC1D HA-NL2 Turbo (mouse) (UniProt Q69ZK9)", "assay": "proximity labelling; in vivo BioID (iBioID): NL-Turbo BirA fusions under the GfaABC1D promoter in astrocytes of mouse cortex (AAV at P0-P1), biotin P18-P20, cortices at P21, Neutravidin beads, LC-MS/MS; enrichment over soluble Turbo BirA in astrocytes", "remark": "listed apart in the source"}},
  "note": "Where two headings read alike, the source gives them in different places. No constants are given. Whether binding was seen depends on the method and setting. Binding seen in cells or lysates may run through a third protein. A yes stands for co-enrichment or nearness to the bait. Other partners may have been found. For part of these data: A no says only that the protein was not detected with the bait.",
  "data": [
    {"molecule": "Dystrophin (from UniProt P11531 1-3678)", "values": [
      {"measurement": "binding", "setting": "[1]", "result": "binds"}
    ]},
    {"molecule": "NL3 (endogenous, mouse cortex) (from UniProt Q8BYM5 35-825)", "values": [
      {"measurement": "binding", "setting": "[2]", "result": "binds"},
      {"measurement": "binding", "setting": "[1]", "result": "binds"}
    ]},
    {"molecule": "neural precursor cell expressed developmentally downregulated 4-like protein (endogenous, mouse cortex) (from UniProt Q8CFI0 1-1004) (enzyme)", "values": [
      {"measurement": "binding", "setting": "[3]", "result": "no binding"},
      {"measurement": "binding", "setting": "[4]", "result": "binds"},
      {"measurement": "binding", "setting": "[1]", "result": "binds"}
    ]},
    {"molecule": "NL1 (endogenous, mouse cortex) (from UniProt Q99K10 46-843)", "values": [
      {"measurement": "binding", "setting": "[2]", "result": "binds"},
      {"measurement": "binding", "setting": "[1]", "result": "binds"}
    ]},
    {"molecule": "B1", "values": [
      {"measurement": "binding", "setting": "[5]", "result": "binds"}
    ]}
  ]
}
